# Reference: PubChem BioAssay AID1259254 (NCATS, 2017)
# Aim: 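Gene knock-downs that lead to re-replication, shown by excess G2 DNA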 (primary screen)
# Cells: human HCT116 colorectal cancer cells
# Reagents: single siRNA against human genes
# Duration: 3 days
# Read-out: 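Nuclei stained with Hoechst and imaged; cell-cycle phase assigned by DNA content; G2 share scaled per plate, non-targeting siRNA 0%, GMNN siRNA 100%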
# Direction: G2 robust z-score and G2 cells, % of GMNN control: higher = more G2 cells, more excess DNA replication; raw share of cells in G2: higher = larger share of cells with G2 DNA content
# Active means: 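Active siRNAs have a G2 robust z of 5 or more median absolute deviations over the median, which in these data means about 38% or higher of GMNN control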
# The whole screen tested about 59,000 reagents; shown is a part drawn at random. Over the whole deposit, about 1,550 (2.6%) got an active call. 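G2 share is only a proxy for re-replication; each gene was hit by three separate siRNAs, and active genes were retested.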 Raw values vary from plate to plate and are shown uncorrected. Entries without a mark were called inactive. The numbers tell different reagents against one gene apart. Not stated in the record: the amount of reagent.
target gene,reagent no.,G2 robust z-score,"G2 cells, % of GMNN control",raw share of cells in G2 (%)
STATH,1,1.32,12.2,10.6
STATH,2,-0.702,-1.97,3.11
STATH,3,-0.278,1.01,3.7
MEMO1,1,-0.0048,2.93,4.97
MEMO1,2,-0.829,-2.86,3.47
MEMO1,3,1.36,12.6,7.21
PDLIM3,1,0.255,4.76,5.55
PDLIM3,2,-0.374,0.339,4.3
PDLIM3,3,-0.513,-0.643,5.87
PARP6,1,-0.226,1.38,4.89
PARP6,2,2.09,17.7,12.9
PARP6,3,0.0788,3.52,4.15
ZNF212,1,3.53,27.8,18.4
ZNF212,2,0.303,5.1,5.48
ZNF212,3,-0.852,-3.03,2.52
LINC02297,1,0.32,5.22,5.64
LINC02297,2,0.00141,2.98,4.55
LINC02297,3,-0.267,1.09,3.49
TTC23,1,0.0945,3.63,6.16
TTC23,2,1.83,15.9,11.7
TTC23,3,0.198,4.36,3.85
IAPP,1,3.57,28.1,16.4
IAPP,2,-0.707,-2.01,3.47
IAPP,3,-0.0863,2.36,5.9
PLA2G2D,1,1.59,14.2,8.63
PLA2G2D,2,-1.39,-6.82,3.07
PLA2G2D,3,4.66,35.7,16
TBC1D7,1,-0.163,1.82,3.83
TBC1D7,2,-0.604,-1.28,3.37
TBC1D7,3,-0.175,1.73,5.2
H2AJ,1,0.394,5.74,6.73
H2AJ,2,-0.0838,2.38,5.12
H2AJ,3,1.34,12.4,7.1
ARF4,1,-0.302,0.84,4.3
ARF4,2,1.61,14.3,10.2
ARF4,3,0.234,4.62,6.29
MSX1,1,-0.997,-4.05,1.86
MSX1,2,-1.03,-4.25,3.79
MSX1,3,-0.35,0.505,5.56
CEACAM16,1,-0.47,-0.338,4.49
CEACAM16,2,0.148,4.01,5.15
CEACAM16,3,-0.297,0.877,3.79
SKI,1,0.199,4.37,5.19
SKI,2,-0.142,1.97,5.77
SKI,3,-0.959,-3.78,1.74
NQO1,1,3.08,24.7,13.8
NQO1,2,1.22,11.6,9.22
NQO1,3,0.726,8.07,6.88
CDKN1A,1,-0.572,-1.06,3.73
CDKN1A,2,0.329,5.28,6.85
CDKN1A,3,1.58,14.1,10.1
DUSP26,1,-1.34,-6.45,2.7
DUSP26,2,4.77,36.5,15.3
DUSP26,3,-1.31,-6.23,1.62
LRRC23,1,0.843,8.9,9.35
LRRC23,2,-0.275,1.04,4.38
LRRC23,3,-0.214,1.46,3.94
CD40LG,1,-0.462,-0.286,5.17
CD40LG,2,-0.799,-2.65,3.12
CD40LG,3,0.153,4.04,5.11
MIR99AHG,1,0.739,8.16,8.13
MIR99AHG,2,0.279,4.93,5.46
MIR99AHG,3,-0.586,-1.16,2.9
CXCR5,1,-0.503,-0.573,5.64
CXCR5,2,-0.318,0.732,4.77
CXCR5,3,-0.167,1.79,3.82
CT47B1,1,-1.03,-4.31,1.72
CT47B1,2,-0.329,0.655,3.34
CT47B1,3,-0.375,0.329,3.76
H2BC13,1,0.898,9.29,9.25
H2BC13,2,0.281,4.94,5.85
H2BC13,3,-0.526,-0.735,3.09
SCAI,1,-0.248,1.22,3.64
SCAI,2,0.00316,2.99,4.73
SCAI,3,-0.225,1.38,3.58
NPAS4,1,0.459,6.2,5.9
NPAS4,2,0.355,5.47,5.16
NPAS4,3,2.52,20.7,9.55
RTL1,1,1.24,11.7,7.77
RTL1,2,4.85,37.1,19.5
RTL1,3,-0.313,0.768,4.96
TBX18,1,6.09 (active),45.8,21.4
TBX18,2,0.323,5.24,6.92
TBX18,3,3.54,27.9,14.7
ZSWIM2,1,-0.321,0.712,3.34
ZSWIM2,2,0.459,6.19,5.32
ZSWIM2,3,-0.782,-2.54,2.64

In a second layout: 6 of the entries above.
PARP6 #2 → G2 robust z-score: 2.09; G2 cells, % of GMNN control: 17.7; raw share of cells in G2 (%): 12.9
PARP6 #3 → G2 robust z-score: 0.0788; G2 cells, % of GMNN control: 3.52; raw share of cells in G2 (%): 4.15
ZNF212 #1 → G2 robust z-score: 3.53; G2 cells, % of GMNN control: 27.8; raw share of cells in G2 (%): 18.4
ZNF212 #2 → G2 robust z-score: 0.303; G2 cells, % of GMNN control: 5.1; raw share of cells in G2 (%): 5.48
ZNF212 #3 → G2 robust z-score: -0.852; G2 cells, % of GMNN control: -3.03; raw share of cells in G2 (%): 2.52
LINC02297 #1 → G2 robust z-score: 0.32; G2 cells, % of GMNN control: 5.22; raw share of cells in G2 (%): 5.64
